{
  "source": "the supplement of paper PMC10338343",
  "note": "± gives the standard deviation. The list shows a part of the results. Many entries were measured with a wide error.",
  "data": [
    {"test_system": "EfPiwi piRISC loaded with L1MC piRNA (26 nt)", "test": "pre-steady-state target cleavage rate (min^-1); guide: L1MC piRNA 5'p-UAACUAAAUACUAUGCAAGCUGUAGG; higher = faster piRNA-guided slicing of the target", "settings": "auxiliary factor: 500 nM Ephydatia muelleri Gtsf1", "procedure,_shortened": "(§1)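 The pre-steady-state cleavage rate was obtained by Cleave-'n-Seq with a burst-and-steady-state fit. A transcribed, DNA-blocked target RNA library (0.1 nM) was mixed with 1 nM active affinity-purified piRISC carrying one synthetic guide, with or without 500 nM GTSF1 partner protein, in HEPES–potassium acetate buffer at 33 °C for 0–8 or 0–960 min. Uncleaved targets were sequenced and normalised to depth and to weakly complementary targets, with three trials pooled and k3 capped at 0.0001 min^-1.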", "values": [
      {"sequence": "UCCUGGUACAGCUUCGCAUAGUAUUUAGUUA", "pre-steady-state target cleavage rate": "0.038 ± 0.0086"},
      {"sequence": "UCCUGGAUGUCGAACCAUAGUUAUUUAGUUA", "pre-steady-state target cleavage rate": "0.000277 ± 0.017"},
      {"sequence": "UCCUGGAUCACGCUUGCAUAGUAUUUAGUUA", "pre-steady-state target cleavage rate": "0.223 ± 0.05"},
      {"sequence": "UCCUGGUACACCUUGCAUUGUAUUUAGUUA", "pre-steady-state target cleavage rate": "0.00103 ± 0.0076"},
      {"sequence": "UCCUCCUACAGCUUGCAUGUAUUUAGUUA", "pre-steady-state target cleavage rate": "0.00924 ± 0.0046"},
      {"sequence": "UCCUCCUACUGCAUGCAUAGUAUUUAGUUA", "pre-steady-state target cleavage rate": "0.0706 ± 0.019"},
      {"sequence": "UCCUCGUACAGGUUGCAUAGUAUUUAGUUA", "pre-steady-state target cleavage rate": "0.0399 ± 0.0088"},
      {"sequence": "UCCUGGAUGUCGAACGAUAGUAUUUAGGUA", "pre-steady-state target cleavage rate": "< 0.0001"},
      {"sequence": "UCCUGGAUGUCGAACGUUAGUUUUUAGAUA", "pre-steady-state target cleavage rate": "0.000258 ± 0.027"},
      {"sequence": "UCCUGGAACAGCUUCAUAGUAUUUAGUUA", "pre-steady-state target cleavage rate": "0.0107 ± 0.0034"},
      {"sequence": "UCCUCCUACAGGCUUGCAUAGUAUUUAGUUA", "pre-steady-state target cleavage rate": "0.0234 ± 0.0078"},
      {"sequence": "UCCUGGAACAGCUUGCAUAGUAUUUACUUA", "pre-steady-state target cleavage rate": "0.00514 ± 0.0038"},
      {"sequence": "UCCUGGAUCAGCUUGCUUAGUAUUUAGAUA", "pre-steady-state target cleavage rate": "0.00193 ± 0.0025"},
      {"sequence": "UCCUCCUACUGCUUGCAUAGUAUAUAGUUA", "pre-steady-state target cleavage rate": "0.0123 ± 0.0054"},
      {"sequence": "UCCUGGAUCAGCUUGCAUAGUUUUUAGAAA", "pre-steady-state target cleavage rate": "0.00205 ± 0.0024"},
      {"sequence": "UCCUGGAUCAGCUUGCAUACUUUUUAGUUA", "pre-steady-state target cleavage rate": "0.00206 ± 0.003"},
      {"sequence": "UCCUGGAUGUGCUUGCAAAGUAUUUAGUAA", "pre-steady-state target cleavage rate": "0.000824 ± 0.0046"},
      {"sequence": "UCCUGGAACUGCUUGCAUAGUAUUAAGUUA", "pre-steady-state target cleavage rate": "0.00242 ± 0.0029"},
      {"sequence": "UCCUGGAUGUCGAACGUUAGUAUGUUAGUUA", "pre-steady-state target cleavage rate": "< 0.0001"},
      {"sequence": "UCCUGGAACAGCUUGCAUAGUAUAAAGUUA", "pre-steady-state target cleavage rate": "0.00389 ± 0.0023"},
      {"sequence": "UCCUGGAUGUGCUUGCUUACUAUUUAGUUA", "pre-steady-state target cleavage rate": "0.00191 ± 0.0053"},
      {"sequence": "UCCUGCUACAGCUUGCAUAGUACUUAGUUA", "pre-steady-state target cleavage rate": "0.00608 ± 0.0018"},
      {"sequence": "UCCUGGAUCAGCAUGCAUAGUAUUUAGAAA", "pre-steady-state target cleavage rate": "0.00356 ± 0.0021"},
      {"sequence": "UCCUGGAUGUCGAACGUAAGUAUUUGAGUUA", "pre-steady-state target cleavage rate": "0.000221 ± 0.024"},
      {"sequence": "UCCUGGAUGUGCAUGCAUAGUAUUUAGUAA", "pre-steady-state target cleavage rate": "0.00151 ± 0.0042"},
      {"sequence": "UCCUGGAUGAGCUUGCAUAGUAUUAAGUUA", "pre-steady-state target cleavage rate": "0.00469 ± 0.0021"},
      {"sequence": "UCCUGGAUGUCGAACGUUACUAUUAAGUUA", "pre-steady-state target cleavage rate": "0.000256 ± 0.018"},
      {"sequence": "UCCUGGAUCAGCUUGCAUAGUAUCUAGUUA", "pre-steady-state target cleavage rate": "0.0167 ± 0.005"},
      {"sequence": "UCCUGGAUGUGCUUGCACAGUAUUUAGUUA", "pre-steady-state target cleavage rate": "0.00686 ± 0.0028"},
      {"sequence": "UCCUGGAUCAGCUUGCAAAGUAUUUAGUAA", "pre-steady-state target cleavage rate": "0.00607 ± 0.0027"},
      {"sequence": "UCCUCCUUCAGCAUGCAUAGUAUUUAGUUA", "pre-steady-state target cleavage rate": "0.0621 ± 0.018"},
      {"sequence": "UCCUGGAUGAGCUUGGAUAGUAUUUAGUAA", "pre-steady-state target cleavage rate": "0.00277 ± 0.003"},
      {"sequence": "UCCUGCUACAGCUGCAUAGUAUUUAGUUA", "pre-steady-state target cleavage rate": "0.0102 ± 0.0026"},
      {"sequence": "UCCUGGAUCAGUCUUGCAUAGUAUUUAGUUA", "pre-steady-state target cleavage rate": "0.0152 ± 0.0042"}
    ]},
    {"test_system": "EfPiwi piRISC loaded with L1MC piRNA (26 nt)", "test": "pre-steady-state target cleavage rate (min^-1); guide: L1MC piRNA 5'p-UAACUAAAUACUAUGCAAGCUGUAGG; MIWI and MILI are mouse PIWI proteins and EfPiwi is from a freshwater sponge; tags in brackets are library labels; higher = faster piRNA-guided slicing of the target", "settings": "auxiliary factor: none (no Gtsf1)", "procedure,_shortened": "as §1", "values": [
      {"sequence": "UCCUGGAUAAGCUUGCAUAGUAUUUAGUUA", "pre-steady-state target cleavage rate": "0.000681 ± 0.018"},
      {"sequence": "UCCUGGAUGUCGAACGAUAGUAUUUGGUUA", "pre-steady-state target cleavage rate": "< 0.0001"},
      {"sequence": "UCCUGGAUGUCGAACGUAUCUAUUUAAUUA", "pre-steady-state target cleavage rate": "< 0.0001"},
      {"sequence": "UCCUCCUACACCUUGCAUUGUAUUUAGUUA", "pre-steady-state target cleavage rate": "0.00058 ± 0.0097"},
      {"sequence": "UCCUGGAUGUCGAACGUUAGUUUUUUGUUA", "pre-steady-state target cleavage rate": "< 0.0001"},
      {"sequence": "UCCUGGAUGUCGAACGUAUGUACUUAGUUA", "pre-steady-state target cleavage rate": "0.000143 ± 0.028"}
    ]}
  ]
}
